Results are given in words; binding and its absence hold for the method and conditions named. Binding seen in cells or lysates may run through a third protein. Some results given as binding are weak or reduced against the parent protein; the word gives no strength. Where a sequence is shown, tags or fusion partners need not be part of it.
Target: T1, FLAG-FAM83B (Family with Sequence Similarity 83, member B) (UniProt Q5T0W9)
T1 sequence: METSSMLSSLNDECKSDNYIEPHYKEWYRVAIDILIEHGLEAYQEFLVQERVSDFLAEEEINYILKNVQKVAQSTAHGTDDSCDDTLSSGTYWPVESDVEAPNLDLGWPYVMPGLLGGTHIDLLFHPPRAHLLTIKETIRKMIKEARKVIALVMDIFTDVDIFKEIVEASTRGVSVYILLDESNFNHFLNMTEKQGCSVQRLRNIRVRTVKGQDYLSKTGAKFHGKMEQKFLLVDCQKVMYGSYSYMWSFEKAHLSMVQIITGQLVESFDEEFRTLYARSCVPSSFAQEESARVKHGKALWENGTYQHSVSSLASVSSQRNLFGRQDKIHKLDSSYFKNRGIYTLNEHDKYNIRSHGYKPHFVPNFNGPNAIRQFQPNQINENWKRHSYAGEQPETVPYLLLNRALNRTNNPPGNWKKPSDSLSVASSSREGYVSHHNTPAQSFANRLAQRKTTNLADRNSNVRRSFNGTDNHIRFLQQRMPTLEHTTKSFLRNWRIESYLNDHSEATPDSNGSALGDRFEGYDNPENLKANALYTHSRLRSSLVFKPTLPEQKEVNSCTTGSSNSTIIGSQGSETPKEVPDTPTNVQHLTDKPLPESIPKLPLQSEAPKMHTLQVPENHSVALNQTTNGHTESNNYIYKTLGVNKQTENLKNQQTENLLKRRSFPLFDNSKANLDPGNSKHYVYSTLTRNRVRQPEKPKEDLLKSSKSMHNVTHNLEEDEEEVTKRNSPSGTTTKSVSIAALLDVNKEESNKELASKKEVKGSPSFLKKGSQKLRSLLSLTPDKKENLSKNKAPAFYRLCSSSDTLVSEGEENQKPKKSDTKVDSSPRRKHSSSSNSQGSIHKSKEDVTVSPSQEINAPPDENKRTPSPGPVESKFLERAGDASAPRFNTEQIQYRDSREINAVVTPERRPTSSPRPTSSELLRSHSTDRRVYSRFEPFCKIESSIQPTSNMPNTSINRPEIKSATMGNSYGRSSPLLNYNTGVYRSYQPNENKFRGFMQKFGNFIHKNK
Test: co-IP; 293T cells co-transfected with 4 μg of each plasmid (lipofectamine 2000); immunoprecipitation with anti-FLAG (M2) affinity gel; lysis buffer 50 mmol/L Tris pH 8.0, 150 mmol/L NaCl, 1.0% NP40; Western analysis of the precipitate

Protein sequences, listed by entry. Tags and fused reporters are not part of them.
UniProt P27986: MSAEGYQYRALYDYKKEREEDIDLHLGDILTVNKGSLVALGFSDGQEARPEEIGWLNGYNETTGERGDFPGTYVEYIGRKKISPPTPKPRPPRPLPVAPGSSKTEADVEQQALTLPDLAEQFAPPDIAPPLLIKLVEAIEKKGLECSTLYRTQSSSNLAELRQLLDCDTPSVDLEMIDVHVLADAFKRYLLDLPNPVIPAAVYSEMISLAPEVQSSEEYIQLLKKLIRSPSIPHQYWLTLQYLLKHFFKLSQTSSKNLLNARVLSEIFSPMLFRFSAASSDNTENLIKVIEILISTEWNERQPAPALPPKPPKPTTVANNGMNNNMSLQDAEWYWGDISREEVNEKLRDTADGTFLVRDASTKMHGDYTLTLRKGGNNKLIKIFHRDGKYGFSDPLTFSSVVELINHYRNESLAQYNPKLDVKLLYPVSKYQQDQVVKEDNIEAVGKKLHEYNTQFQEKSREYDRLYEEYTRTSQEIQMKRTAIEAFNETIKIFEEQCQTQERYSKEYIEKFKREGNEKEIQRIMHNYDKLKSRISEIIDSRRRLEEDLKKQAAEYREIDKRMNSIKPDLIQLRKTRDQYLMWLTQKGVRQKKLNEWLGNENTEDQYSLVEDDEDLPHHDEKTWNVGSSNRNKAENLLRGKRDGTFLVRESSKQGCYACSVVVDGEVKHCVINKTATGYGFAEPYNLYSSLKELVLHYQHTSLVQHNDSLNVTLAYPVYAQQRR

- binding: binds
Substance: HA-p85 (p85α regulatory subunit of PI3K) (from UniProt P27986 1-724)
